# In the supplement of paper PMC12823440, “Inhibitors supercharge kinase turnover through native proteolytic circuits” (Nature, 2025):
# Sequences of proteins named here, by UniProt entry; tags and fusion partners are left off. A change or cut given only in a name is not applied to a line headed by its entry.
# UniProt Q6PHR2: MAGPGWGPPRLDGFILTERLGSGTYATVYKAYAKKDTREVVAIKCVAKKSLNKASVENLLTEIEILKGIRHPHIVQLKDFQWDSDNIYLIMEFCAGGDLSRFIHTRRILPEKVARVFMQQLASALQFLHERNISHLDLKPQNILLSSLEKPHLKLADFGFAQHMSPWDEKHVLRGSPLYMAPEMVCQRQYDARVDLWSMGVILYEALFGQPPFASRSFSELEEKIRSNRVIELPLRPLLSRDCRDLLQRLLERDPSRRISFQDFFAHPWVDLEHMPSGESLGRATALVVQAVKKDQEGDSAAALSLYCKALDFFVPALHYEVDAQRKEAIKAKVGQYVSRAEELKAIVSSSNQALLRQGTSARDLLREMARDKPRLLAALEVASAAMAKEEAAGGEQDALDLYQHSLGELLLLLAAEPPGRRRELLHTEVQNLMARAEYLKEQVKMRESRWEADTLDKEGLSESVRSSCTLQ
# The other results are listed elsewhere or left out. Hit calls seldom repeat between salt and free forms of one compound.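 In K562 cells expressing nanoluciferase-fused kinases, luminescence was recorded at 4 h intervals between 2 and 18 h, normalized as percent of control with DMSO at 100% and a positive control at 0%. A significant (2 sigma) signal drop marks a time point as decreased. The authors' rule for a hit is not shown and takes in more than the number of time points.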
# Target: ULK3 (UniProt Q6PHR2)
# Assay: number of time points (of 5) at which kinase-Nluc abundance scored as decreased, DMSO-normalised (count); higher = more persistent destabilization
# Conditions: K562; 2-18 h
row,Structure (SMILES),number of time points
1,CNc1nc(Nc2ccc(C(=O)N3CCOCC3)cc2OC)ncc1Cl (2.5 µM),0
2,CCN(CC)c1ccc2cc(-c3nc4cc(C)ccc4o3)c(=O)oc2c1 (10 µM),0
3,COc1ccccc1C(=O)/C=C/c1ccccc1C(=O)O (10 µM),0
4,CC(=O)N1CCC(c2cc(-c3ccc(NC(=O)c4cccn(-c5ccc(F)cc5)c4=O)cc3F)c3c(N)ncnn23)CC1 (0.5 µM),0
5,O[C@@H]1CO[C@H]2[C@@H]1OC[C@H]2Oc1nc2nc(-c3ccc(-c4ccccc4)cc3)c(Cl)cc2[nH]1 (10 µM),0
